For some of these results: HELM strings list residues between dots; [ac] is acetyl, [am] amide, other brackets name non-standard units. Numbered stars: 1 amine (or outer) side, 2 acyl side, 3 side chain; on linkers, the order of the positions; unused ones are H or OH. Bridge positions count the residues as written; N and C are the ends. I, II: the chains in the order shown. X6 = CC(CNC(=O)NC(C)CNC(=O)[*:1])NC(=O)NCC(C)N[*:2]
Assay: general procedure: Fmoc solid-phase peptide synthesis; Sieber resin; PyBOP/DIEA
Conditions: whole synthesis, scale 0.1 mmol

Substance “H-HGEGTFTSDVA^uY^uA^uEGQAAKEFIAWLVKGRG-NH2” has an isolated mass of 2.4 mg.

Work on “H-HGEGTFTSDVA^uY^uA^uEGQAAKEFIAWLVKGRG-NH2” yielded an isolated yield of 0.8%.

Assay: general procedure: Fmoc solid-phase peptide synthesis; wang resin; PyBOP/DIEA
Conditions: whole synthesis, scale 0.1 mmol

Substance semaglutide has an isolated mass of 2.2 mg.

In the case of semaglutide, the isolated yield is reported as 0.5%.

Assay: general procedure: Fmoc solid-phase peptide synthesis; rink resin; PyBOP/DIEA
Conditions: whole synthesis, scale 0.1 mmol

With “PEPTIDE1{H.[Aib].E.G.T.F.T.S.D.V.S.S.Y.L.E.G.Q.A.A.K.E.F.I.A.W.L.V.[Au].[Au].[Au].[am]}|PEPTIDE2{[C18diacid].[gGlu].[OEG].[OEG]}$PEPTIDE1,PEPTIDE2,20:R3-4:R2$$$V2.0” the isolated mass was 1.45 mg.

Work on “PEPTIDE1{H.[Aib].E.G.T.F.T.S.D.V.S.S.Y.L.E.G.Q.A.A.K.E.F.I.A.W.L.V.[Au].[Au].[Au].[am]}|PEPTIDE2{[C18diacid].[gGlu].[OEG].[OEG]}$PEPTIDE1,PEPTIDE2,20:R3-4:R2$$$V2.0” yielded an isolated yield of 0.4%.

Assay: general procedure: Fmoc solid-phase peptide synthesis; sieber resin; PyBOP/DIEA
Conditions: whole synthesis, scale 0.1 mmol

Going from “H-HGEGTFTSDA^uA^uA^uLEGQAAKEFIAWLVKGRG-NH2” to “H-HGEGTFTSDVA^uA^uA^uEGQAAKEFIAWLVKGRG-NH2”, the isolated mass falls from 28.4 mg to 7.0 mg.

First: H-HGEGTFTSDVSA^uA^uA^uGQAAKEFIAWLVKGRG-NH2
Second: H-HGEGTFTSDVSSA^uA^uA^uQAAKEFIAWLVKGRG-NH2
The isolated mass of the first is lower: 9.3 mg for the first, 11.88 mg for the second.

First: H-HGEGTFTSDVSSYLA^uA^uA^uAKEFIAWLVKGRG-NH2
Second: H-HGEGTFTSDVSSYLEA^uA^uA^uKEFIAWLVKGRG-NH2
The isolated mass of the first is higher: 13.02 mg for the first, 10.2 mg for the second.

First: H-HGEGTFTSDVSSYLEGA^uA^uA^uEFIAWLVKGRG-NH2
Second: H-HGEGTFTSDVSSYLEGQAAKEFIAWLVKGRG-NH2
The isolated mass of the first is higher: 10.98 mg for the first, 6.1 mg for the second.

First: H-HGEGTFTSDVSSYLEGQAA^uA^uA^uIAWLVKGRG-NH2
Second: H-HGEGTFTSDVSSYLEGQA^uA^uA^uFIAWLVKGRG-NH2
The isolated mass of the first is higher: 8.4 mg for the first, 6.0 mg for the second.

Going from “H-HGEGTFTSDVSSYLE^uA^uA^uAKEFIAWLVKGRG-NH2” to “H-HGEGTFTSDVSSYY^uE^uA^uAAKEFIAWLVKGRG-NH2”, the isolated mass falls from 17.6 mg to 2.3 mg.

First: H-HGEGTFTSD^uαA^uA^uYLEGQAAKEFIAWLVKGRG-NH2
Second: I: AAKEFIAWLVKGRG-NH2 / II: H-HGEGTFTSDVSSY (linker I:N-II:C via X6; SMILES CC[C@H](C)[C@H](NC(=O)[C@H](Cc1ccccc1)NC(=O)[C@H](CCC(=O)O)NC(=O)[C@H](CCCCN)NC(=O)[C@H](C)NC(=O)[C@H](C)NC(=O)NCC(C)NC(=O)NCC(C)NC(=O)NCC(C)NC(=O)[C@H](Cc1ccc(O)cc1)NC(=O)[C@H](CO)NC(=O)[C@H](CO)NC(=O)[C@@H](NC(=O)[C@H](CC(=O)O)NC(=O)[C@H](CO)NC(=O)[C@@H](NC(=O)[C@H](Cc1ccccc1)NC(=O)[C@@H](NC(=O)CNC(=O)[C@H](CCC(=O)O)NC(=O)CNC(=O)[C@@H](N)Cc1c[nH]cn1)[C@@H](C)O)[C@@H](C)O)C(C)C)C(=O)N[C@@H](C)C(=O)N[C@@H](Cc1c[nH]c2ccccc12)C(=O)N[C@@H](CC(C)C)C(=O)N[C@H](C(=O)N[C@@H](CCCCN)C(=O)NCC(=O)N[C@@H](CCCNC(=N)N)C(=O)NCC(N)=O)C(C)C)
The isolated mass of the first is higher: 10.13 mg for the first, 3.22 mg for the second.

First: H-HGEGTFTSDA^uA^uA^uLEGQAAKEFIAWLVKGRG-NH2
Second: H-HGEGTFTSDVA^uA^uA^uEGQAAKEFIAWLVKGRG-NH2
The isolated yield of the first is higher: 8.9% for the first, 2.2% for the second.

Compared with “H-HGEGTFTSDVSA^uA^uA^uGQAAKEFIAWLVKGRG-NH2”, “H-HGEGTFTSDVSSA^uA^uA^uQAAKEFIAWLVKGRG-NH2” is higher in isolated yield: 2.95% for the first, 3.7% for the second.

Compared with “H-HGEGTFTSDVSSYLA^uA^uA^uAKEFIAWLVKGRG-NH2”, “H-HGEGTFTSDVSSYLEA^uA^uA^uKEFIAWLVKGRG-NH2” is lower in isolated yield: 4.0% for the first, 3.1% for the second.

Going from “H-HGEGTFTSDVSSYLEGA^uA^uA^uEFIAWLVKGRG-NH2” to H-HGEGTFTSDVSSYLEGQAAKEFIAWLVKGRG-NH2, the isolated yield falls from 3.4% to 1.8%.

First: H-HGEGTFTSDVSSYLEGQAA^uA^uA^uIAWLVKGRG-NH2
Second: H-HGEGTFTSDVSSYLEGQA^uA^uA^uFIAWLVKGRG-NH2
The isolated yield of the first is higher: 2.6% for the first, 1.85% for the second.

Going from “H-HGEGTFTSDVSSYLE^uA^uA^uAKEFIAWLVKGRG-NH2” to “H-HGEGTFTSDVSSYY^uE^uA^uAAKEFIAWLVKGRG-NH2”, the isolated yield falls from 5.3% to 0.7%.

Going from “H-HGEGTFTSD^uαA^uA^uYLEGQAAKEFIAWLVKGRG-NH2” to “I: AAKEFIAWLVKGRG-NH2 / II: H-HGEGTFTSDVSSY (linker I:N-II:C via X6; SMILES CC[C@H](C)[C@H](NC(=O)[C@H](Cc1ccccc1)NC(=O)[C@H](CCC(=O)O)NC(=O)[C@H](CCCCN)NC(=O)[C@H](C)NC(=O)[C@H](C)NC(=O)NCC(C)NC(=O)NCC(C)NC(=O)NCC(C)NC(=O)[C@H](Cc1ccc(O)cc1)NC(=O)[C@H](CO)NC(=O)[C@H](CO)NC(=O)[C@@H](NC(=O)[C@H](CC(=O)O)NC(=O)[C@H](CO)NC(=O)[C@@H](NC(=O)[C@H](Cc1ccccc1)NC(=O)[C@@H](NC(=O)CNC(=O)[C@H](CCC(=O)O)NC(=O)CNC(=O)[C@@H](N)Cc1c[nH]cn1)[C@@H](C)O)[C@@H](C)O)C(C)C)C(=O)N[C@@H](C)C(=O)N[C@@H](Cc1c[nH]c2ccccc12)C(=O)N[C@@H](CC(C)C)C(=O)N[C@H](C(=O)N[C@@H](CCCCN)C(=O)NCC(=O)N[C@@H](CCCNC(=N)N)C(=O)NCC(N)=O)C(C)C)”, the isolated yield falls from 3.1% to 1.0%.

From patent publication US11285219B2 (UREKA SARL, priority 2019, dated 2022)
